# This is one part of the list.
# Protein sequences, listed by entry. Tags and fused reporters are not part of them. Lines headed by an entry give the natural chain unless they say otherwise; changes in a name come on top.
# UniProt Q6P2C8: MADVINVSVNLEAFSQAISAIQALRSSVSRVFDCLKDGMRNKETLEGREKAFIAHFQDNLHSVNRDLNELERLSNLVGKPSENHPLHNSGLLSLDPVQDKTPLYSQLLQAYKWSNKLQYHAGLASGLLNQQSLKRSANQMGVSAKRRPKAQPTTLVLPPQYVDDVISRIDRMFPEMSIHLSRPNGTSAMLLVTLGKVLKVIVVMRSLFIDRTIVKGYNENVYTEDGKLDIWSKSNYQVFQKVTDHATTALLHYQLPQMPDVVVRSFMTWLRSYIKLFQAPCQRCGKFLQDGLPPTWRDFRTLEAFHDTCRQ
# UniProt P33992: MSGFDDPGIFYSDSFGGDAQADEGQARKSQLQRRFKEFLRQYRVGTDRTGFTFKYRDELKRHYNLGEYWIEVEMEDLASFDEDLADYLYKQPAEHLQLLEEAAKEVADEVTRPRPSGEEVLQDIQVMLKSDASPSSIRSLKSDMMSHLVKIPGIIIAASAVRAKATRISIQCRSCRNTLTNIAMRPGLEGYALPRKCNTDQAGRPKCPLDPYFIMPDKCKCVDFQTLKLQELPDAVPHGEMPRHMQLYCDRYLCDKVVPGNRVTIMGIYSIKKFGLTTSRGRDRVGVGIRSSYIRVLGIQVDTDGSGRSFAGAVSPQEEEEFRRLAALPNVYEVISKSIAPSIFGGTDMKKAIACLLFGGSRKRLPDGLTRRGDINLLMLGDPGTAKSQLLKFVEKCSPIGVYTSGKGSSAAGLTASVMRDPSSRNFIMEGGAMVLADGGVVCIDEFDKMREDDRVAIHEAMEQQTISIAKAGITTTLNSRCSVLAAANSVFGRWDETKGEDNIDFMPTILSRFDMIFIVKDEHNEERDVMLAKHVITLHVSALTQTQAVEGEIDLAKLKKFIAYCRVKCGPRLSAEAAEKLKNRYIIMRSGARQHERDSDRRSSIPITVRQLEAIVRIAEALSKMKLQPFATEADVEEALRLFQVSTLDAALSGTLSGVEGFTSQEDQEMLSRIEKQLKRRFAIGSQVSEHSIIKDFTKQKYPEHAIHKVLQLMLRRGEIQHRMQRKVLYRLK
# UniProt Q8IWA4: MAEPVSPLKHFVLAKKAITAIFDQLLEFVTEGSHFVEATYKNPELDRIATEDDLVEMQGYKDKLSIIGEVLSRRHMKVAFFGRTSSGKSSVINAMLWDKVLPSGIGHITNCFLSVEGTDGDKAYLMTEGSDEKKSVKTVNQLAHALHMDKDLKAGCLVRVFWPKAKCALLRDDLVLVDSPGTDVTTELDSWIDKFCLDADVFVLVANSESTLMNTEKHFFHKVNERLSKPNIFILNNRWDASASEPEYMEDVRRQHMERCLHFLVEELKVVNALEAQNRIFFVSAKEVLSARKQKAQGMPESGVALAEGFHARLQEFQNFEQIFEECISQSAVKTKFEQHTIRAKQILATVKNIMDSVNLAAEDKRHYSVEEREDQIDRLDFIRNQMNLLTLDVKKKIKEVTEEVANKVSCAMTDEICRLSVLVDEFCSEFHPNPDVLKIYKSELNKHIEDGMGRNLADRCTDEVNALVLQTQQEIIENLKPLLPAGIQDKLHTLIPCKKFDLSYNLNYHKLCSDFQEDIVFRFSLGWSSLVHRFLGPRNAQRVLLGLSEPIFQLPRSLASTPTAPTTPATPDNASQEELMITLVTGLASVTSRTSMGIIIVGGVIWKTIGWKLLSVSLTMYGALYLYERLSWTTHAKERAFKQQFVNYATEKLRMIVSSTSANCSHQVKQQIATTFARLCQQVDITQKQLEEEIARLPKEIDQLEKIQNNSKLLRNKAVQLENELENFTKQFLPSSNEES
# UniProt Q96RN5: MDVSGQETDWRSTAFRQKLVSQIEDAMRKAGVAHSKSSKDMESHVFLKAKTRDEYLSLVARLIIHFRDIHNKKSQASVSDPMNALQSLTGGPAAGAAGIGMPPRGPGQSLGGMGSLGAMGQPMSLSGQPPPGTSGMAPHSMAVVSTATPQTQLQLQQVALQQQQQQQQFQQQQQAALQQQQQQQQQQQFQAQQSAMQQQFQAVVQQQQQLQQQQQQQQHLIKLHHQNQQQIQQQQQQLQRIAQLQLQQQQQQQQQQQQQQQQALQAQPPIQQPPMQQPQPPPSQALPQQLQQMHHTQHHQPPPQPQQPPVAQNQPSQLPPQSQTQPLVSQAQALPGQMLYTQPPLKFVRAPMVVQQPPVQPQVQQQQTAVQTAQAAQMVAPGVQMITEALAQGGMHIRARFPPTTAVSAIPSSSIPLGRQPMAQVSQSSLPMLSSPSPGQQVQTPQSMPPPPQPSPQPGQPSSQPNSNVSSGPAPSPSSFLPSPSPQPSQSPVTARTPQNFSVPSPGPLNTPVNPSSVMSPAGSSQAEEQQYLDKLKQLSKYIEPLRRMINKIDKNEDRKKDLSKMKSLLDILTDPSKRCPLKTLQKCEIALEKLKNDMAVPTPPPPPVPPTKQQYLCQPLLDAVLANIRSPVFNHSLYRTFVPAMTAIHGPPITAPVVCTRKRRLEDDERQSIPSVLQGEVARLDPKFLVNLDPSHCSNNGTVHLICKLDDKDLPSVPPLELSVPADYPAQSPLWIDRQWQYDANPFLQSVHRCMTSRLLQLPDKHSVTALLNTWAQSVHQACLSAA
# UniProt O15553: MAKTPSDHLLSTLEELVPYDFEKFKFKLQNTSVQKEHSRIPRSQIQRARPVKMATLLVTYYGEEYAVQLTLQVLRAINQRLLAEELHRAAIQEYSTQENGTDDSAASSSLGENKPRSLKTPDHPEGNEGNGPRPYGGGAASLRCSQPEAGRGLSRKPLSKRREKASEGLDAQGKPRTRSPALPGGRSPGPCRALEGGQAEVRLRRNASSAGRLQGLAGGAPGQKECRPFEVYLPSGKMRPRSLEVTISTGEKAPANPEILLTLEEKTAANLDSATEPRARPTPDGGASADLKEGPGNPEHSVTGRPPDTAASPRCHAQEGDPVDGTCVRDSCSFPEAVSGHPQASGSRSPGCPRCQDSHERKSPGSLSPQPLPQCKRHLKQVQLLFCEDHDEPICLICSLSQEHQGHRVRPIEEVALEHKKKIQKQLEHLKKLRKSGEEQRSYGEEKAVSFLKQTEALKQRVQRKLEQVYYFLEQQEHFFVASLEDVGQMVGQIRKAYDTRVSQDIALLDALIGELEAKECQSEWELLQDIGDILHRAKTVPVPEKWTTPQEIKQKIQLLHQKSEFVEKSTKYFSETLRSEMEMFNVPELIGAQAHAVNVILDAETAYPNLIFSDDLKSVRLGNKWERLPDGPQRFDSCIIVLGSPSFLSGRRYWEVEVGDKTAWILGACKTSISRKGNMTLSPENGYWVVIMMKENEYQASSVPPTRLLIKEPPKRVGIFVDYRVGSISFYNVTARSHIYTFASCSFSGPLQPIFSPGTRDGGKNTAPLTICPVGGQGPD
# UniProt P50579: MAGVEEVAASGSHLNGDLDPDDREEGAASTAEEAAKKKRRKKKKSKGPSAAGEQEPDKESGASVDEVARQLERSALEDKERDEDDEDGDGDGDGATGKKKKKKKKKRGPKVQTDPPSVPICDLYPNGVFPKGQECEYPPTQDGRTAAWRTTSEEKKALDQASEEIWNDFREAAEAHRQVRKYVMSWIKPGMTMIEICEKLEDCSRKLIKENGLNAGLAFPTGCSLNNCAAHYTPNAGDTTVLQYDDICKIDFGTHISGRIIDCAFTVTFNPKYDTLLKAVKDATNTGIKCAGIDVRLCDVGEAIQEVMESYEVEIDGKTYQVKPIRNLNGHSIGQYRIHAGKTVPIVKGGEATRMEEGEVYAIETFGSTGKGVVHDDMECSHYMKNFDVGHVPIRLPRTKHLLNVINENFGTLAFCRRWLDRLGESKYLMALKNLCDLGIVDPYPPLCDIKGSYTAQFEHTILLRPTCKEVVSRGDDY
# UniProt Q9H204: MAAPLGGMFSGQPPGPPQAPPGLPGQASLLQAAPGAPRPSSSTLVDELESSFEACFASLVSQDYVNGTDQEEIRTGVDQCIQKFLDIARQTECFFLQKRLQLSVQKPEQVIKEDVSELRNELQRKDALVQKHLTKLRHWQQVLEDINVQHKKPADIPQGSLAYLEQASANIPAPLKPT
# UniProt Q7L2J0: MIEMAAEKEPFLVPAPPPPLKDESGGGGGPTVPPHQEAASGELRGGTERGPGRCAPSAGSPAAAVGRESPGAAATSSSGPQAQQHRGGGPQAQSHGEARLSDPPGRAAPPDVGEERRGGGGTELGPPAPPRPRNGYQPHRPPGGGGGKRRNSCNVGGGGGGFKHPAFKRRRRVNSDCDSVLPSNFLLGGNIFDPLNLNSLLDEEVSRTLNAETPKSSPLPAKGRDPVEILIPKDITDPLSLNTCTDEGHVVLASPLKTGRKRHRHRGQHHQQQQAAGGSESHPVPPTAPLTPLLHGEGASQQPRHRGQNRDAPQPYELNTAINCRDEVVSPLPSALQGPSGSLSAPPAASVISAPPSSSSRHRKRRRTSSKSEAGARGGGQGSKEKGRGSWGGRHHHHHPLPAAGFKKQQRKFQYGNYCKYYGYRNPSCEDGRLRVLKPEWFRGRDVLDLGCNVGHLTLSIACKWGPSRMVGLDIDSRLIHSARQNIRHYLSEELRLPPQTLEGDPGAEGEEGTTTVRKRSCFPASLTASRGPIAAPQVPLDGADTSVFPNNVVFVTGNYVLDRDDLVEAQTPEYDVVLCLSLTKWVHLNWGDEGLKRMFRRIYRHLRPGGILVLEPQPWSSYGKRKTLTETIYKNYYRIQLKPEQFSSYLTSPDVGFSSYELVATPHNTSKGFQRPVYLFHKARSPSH
# UniProt O95140: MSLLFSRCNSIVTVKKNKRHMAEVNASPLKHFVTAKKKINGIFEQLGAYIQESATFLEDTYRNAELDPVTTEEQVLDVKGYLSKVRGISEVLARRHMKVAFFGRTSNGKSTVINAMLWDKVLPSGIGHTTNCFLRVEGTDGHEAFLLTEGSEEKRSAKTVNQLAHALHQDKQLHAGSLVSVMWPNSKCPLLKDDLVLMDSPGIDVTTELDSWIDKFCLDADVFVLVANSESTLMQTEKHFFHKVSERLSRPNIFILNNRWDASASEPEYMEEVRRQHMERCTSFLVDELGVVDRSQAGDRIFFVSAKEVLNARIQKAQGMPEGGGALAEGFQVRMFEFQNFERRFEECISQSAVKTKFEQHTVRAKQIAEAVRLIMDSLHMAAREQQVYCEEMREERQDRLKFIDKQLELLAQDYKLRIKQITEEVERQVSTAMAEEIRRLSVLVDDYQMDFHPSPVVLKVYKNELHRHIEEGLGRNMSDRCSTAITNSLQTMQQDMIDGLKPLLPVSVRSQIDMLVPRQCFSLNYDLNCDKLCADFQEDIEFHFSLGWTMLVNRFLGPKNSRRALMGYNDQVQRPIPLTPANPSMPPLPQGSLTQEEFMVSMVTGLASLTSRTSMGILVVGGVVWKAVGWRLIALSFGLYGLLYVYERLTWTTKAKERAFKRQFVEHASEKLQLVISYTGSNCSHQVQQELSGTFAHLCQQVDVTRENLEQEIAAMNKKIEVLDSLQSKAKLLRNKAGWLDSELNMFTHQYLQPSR
# UniProt Q9HCE5: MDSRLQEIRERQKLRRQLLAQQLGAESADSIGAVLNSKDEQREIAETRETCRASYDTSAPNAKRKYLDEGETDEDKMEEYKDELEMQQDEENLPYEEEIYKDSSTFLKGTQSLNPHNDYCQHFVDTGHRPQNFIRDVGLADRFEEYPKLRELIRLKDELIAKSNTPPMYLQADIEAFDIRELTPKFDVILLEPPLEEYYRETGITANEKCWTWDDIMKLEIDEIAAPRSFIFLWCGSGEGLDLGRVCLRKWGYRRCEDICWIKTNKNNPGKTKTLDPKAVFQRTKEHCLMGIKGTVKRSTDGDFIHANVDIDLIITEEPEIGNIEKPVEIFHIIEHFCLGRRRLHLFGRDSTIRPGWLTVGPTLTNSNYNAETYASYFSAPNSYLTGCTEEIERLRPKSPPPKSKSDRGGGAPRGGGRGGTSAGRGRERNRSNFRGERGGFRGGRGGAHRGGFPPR
# UniProt Q07820, whole entry, looked up: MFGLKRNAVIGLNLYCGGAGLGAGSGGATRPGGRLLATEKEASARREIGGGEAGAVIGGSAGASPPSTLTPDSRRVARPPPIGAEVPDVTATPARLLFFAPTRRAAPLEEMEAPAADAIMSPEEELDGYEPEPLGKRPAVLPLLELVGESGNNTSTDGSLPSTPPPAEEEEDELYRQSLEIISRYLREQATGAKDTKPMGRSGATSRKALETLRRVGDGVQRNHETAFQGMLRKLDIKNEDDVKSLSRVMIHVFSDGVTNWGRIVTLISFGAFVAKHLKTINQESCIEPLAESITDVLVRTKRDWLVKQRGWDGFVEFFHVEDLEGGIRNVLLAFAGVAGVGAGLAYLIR
# UniProt Q13503: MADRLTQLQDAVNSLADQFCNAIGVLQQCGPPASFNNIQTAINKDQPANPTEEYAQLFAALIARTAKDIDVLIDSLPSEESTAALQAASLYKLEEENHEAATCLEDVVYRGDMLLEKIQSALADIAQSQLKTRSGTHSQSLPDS
# Compound: CC1Cc2ccccc2N1C(=O)C1CCCN(C1)C(=O)CCl (mixture of isomers) [TRIM25 ligand 11 (diastereomer mixture)]
# Assay: probe-labelled cysteine peptide fold change vs DMSO (competition) (log2 fold change); higher = less target engagement (more negative = stronger competition)
# Settings: THP-1, incubation time: 4 h
# 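Note: competitive chemoproteomic profiling in live THP-1 cells with an iodoacetamide desthiobiotin (IA-DTB) probe, comparing probe-labelled peptide intensities in compound-treated cells against DMSO-treated controls.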
Target,probe-labelled cysteine peptide fold change (10 µM),probe-labelled cysteine peptide fold change (50 µM)
MED27_Q6P2C8_309_TLEAFHDTCRQ (UniProt Q6P2C8),0.0636,-0.0401
MCM5_P33992_482_CSVLAAANSVFGR (UniProt P33992),0.14,0.166
MFN1_Q8IWA4_513_LCSDFQEDIVFR (UniProt Q8IWA4),0.257,0.355
ME2_P23368_202_CLPVCIDVGTDNIALLK (UniProt P23368),-0.0273,0.133
MCM5_P33992_355_KAIACLLFGGSR (UniProt P33992),-0.476,-0.468
METTL26_Q96S19_162_CRNPEWGLR (UniProt Q96S19),-0.0108,0.0473
MDN1_Q9NU22_3195_ELLCQLLTSLHHFVGEGESK (UniProt Q9NU22),0.0155,-0.348
MED15_Q96RN5_660_TFVPAMTAIHGPPITAPVVCTR (UniProt Q96RN5),-0.0884,-0.0434
MEFV_O15553_521_ECQSEWELLQDIGDILHR (UniProt O15553),-0.159,-0.12
METAP2_P50579_197_PGMTMIEICEK (UniProt P50579),0.0918,0.0252
MCCC2_Q9HCC0_131_VSGVECMIIANDATVK (UniProt Q9HCC0),0.118,0.0756
MED28_Q9H204_93_QTECFFLQK (UniProt Q9H204),-0.159,-0.336
MEPCE_Q7L2J0_452_GRDVLDLGCNVGHLTLSIACK (UniProt Q7L2J0),-0.015,-0.00453
MFN2_O95140_132_VLPSGIGHTTNCFLR (UniProt O95140),-0.0408,-0.269
MFN2_O95140_281_CTSFLVDELGVVDR (UniProt O95140),0.0964,0.0653
METAP1_P53582_174_PGVTTEEIDHAVHLACIAR (UniProt P53582),0.064,0.133
METTL14_Q9HCE5_288_EHCLMGIK (UniProt Q9HCE5),-0.0706,0.0358
METAP1_P53582_14_VCETDGCSSEAK (UniProt P53582),-0.0223,-0.0699
MCL1_Q07820_16_NAVIGLNLYCGGAGLGAGSGGATRPGGR (UniProt Q07820),0.233,0.0883
MED21_Q13503_103_LEEENHEAATCLEDVVYR (UniProt Q13503),0.393,0.228
METTL2A_Q96IZ6_126_SEVPECR (UniProt Q96IZ6),-0.0528,-0.156
MCM3AP_O60318_740_DITQQHLCDPLTVSLIEK (UniProt O60318),0.0793,0.0427

# Two entries picked at random from the list so far, as already listed:
Target,probe-labelled cysteine peptide fold change (10 µM),probe-labelled cysteine peptide fold change (50 µM)
METAP2_P50579_197_PGMTMIEICEK (UniProt P50579),0.0918,0.0252
MED28_Q9H204_93_QTECFFLQK (UniProt Q9H204),-0.159,-0.336

# Reference: the supplement of paper PMC12067093, “Discovery and optimisation of a covalent ligand for TRIM25 and its application to targeted protein ubiquitination” (Chemical Science, 2025)
